# Counter-ions that a name gives are not always drawn. ± gives the standard deviation of the averaged measurements. The list shows a part of the results. Most values come without repeats; read them as rough.
# System: RAW 264.7
# Assay: HMGB1-induced TNF-alpha production relative to HMGB1-stimulated control; higher = more TNF-alpha secretion (less inhibition)
# Conditions: stimulus: HMGB1 5 ug/ml, 18 h
# [1] = compound concentration: 1 ug/ml
Structure (SMILES),HMGB1-induced TNF-alpha production [1] [%],HMGB1-induced TNF-alpha production (compound concentration: 3 uM) [%]
CCOC(=O)[C@@H](N)Cc1ccccc1 [Phenylalanine ethyl ester hydrochloride],65.3,–
NC1CCN(O)C1=O (racemic),–,96.5
CC[C@H](C)C(=O)O[C@H]1C[C@@H](C)C=C2C=C[C@H](C)[C@H](CC[C@@H]3C[C@@H](O)CC(=O)O3)[C@H]21 [Lovastatin],–,115 ± 40
CC[C@H](C)C(=O)O[C@H]1C[C@@H](C)C=C2C=C[C@H](C)[C@H](CC[C@@H]3C[C@@H](O)CC(=O)O3)[C@H]21,–,91.9
CC[C@H](C)C(=O)O[C@H]1C[C@@H](C)C=C2C=C[C@H](C)[C@H](CC[C@@H]3C[C@@H](O)CC(=O)O3)[C@H]21 [Mevinolin; Lovastatin],86.3,–
Cc1c(C)c2c(c(C)c1O)CCC(C)(C(=O)O)O2 (stereo unspecified) [Trolox],–,54
COc1cc2oc(-c3ccccc3)cc(=O)c2cc1OC,65.9,–
O=C1C2OCC(O2)[C@@H]2[C@@H]1[C@@H]1c3ccccc3C=CN1[C@H]2C(=O)c1ccccc1 (stereo partly specified),39.9,–
CC(=O)CCCCn1cnc2c1c(=O)n(C)c(=O)n2C,–,97
CC(=O)N[C@@H](CS)C(=O)O,–,85.3
CC(=O)N[C@@H](CS)C(=O)O [N-Acetyl-L-Cysteine],–,87.6
CC(=O)N[C@@H](CS)C(=O)O [Acetylcysteine],–,91.5
"O=c1cc(-c2ccccc2)[nH]c2nc(Cl)ccc12 [7-Chloro-4-hydroxy-2-phenyl-1,8-naphthyridine]",–,84.6
O=c1[nH]c(=O)c2nc3ccccc3nc2[nH]1 [Alloxazine],–,95
N#C/C(=C\c1ccc(O)c(O)c1)C(=O)NCCc1ccccc1 [Tyrphostin AG 698],–,131
CC(=O)O[C@H]1C[C@@]2(C)[C@@H](C[C@@H](O)[C@H]3[C@@]4(C)CC[C@@H](O)[C@@H](C)[C@@H]4CC[C@@]32C)/C1=C(\CCC=C(C)C)C(=O)O,–,73.8
CC(=O)O[C@H]1C[C@@]2(C)[C@@H](C[C@@H](O)[C@H]3[C@@]4(C)CC[C@@H](O)[C@@H](C)[C@@H]4CC[C@@]32C)/C1=C(\CCC=C(C)C)C(=O)O [Fusidic acid sodium],–,82.2
CC(=O)O[C@H]1C[C@@]2(C)[C@@H](C[C@@H](O)[C@H]3[C@@]4(C)CC[C@@H](O)[C@@H](C)[C@@H]4CC[C@@]32C)/C1=C(\CCC=C(C)C)C(=O)O [Fusidic acid sodium salt],–,47.6
O=c1[nH]c2cc(C(F)(F)F)ccc2n1-c1cc(C(F)(F)F)ccc1O,–,103
COc1cc(C2Oc3cc([C@H]4Oc5cc(O)cc(O)c5C(=O)[C@@H]4O)ccc3OC2CO)ccc1O (stereo partly specified),–,77.9
O=c1cc(-c2ccccc2)oc2cc(O)c(O)c(O)c12 [Baicalein],68.3,–
"COc1ccc(-c2oc3cc(OC)ccc3c(=O)c2O)cc1 [4',7-Dimethoxy-3-hydroxyflavone]",78.4,–
CC(C)CCCC(C)N (stereo unspecified),–,90.8

# Given tab-delimited: part of the list above.
Structure (SMILES)	HMGB1-induced TNF-alpha production [1] [%]	HMGB1-induced TNF-alpha production (compound concentration: 3 uM) [%]
N#C/C(=C\c1ccc(O)c(O)c1)C(=O)NCCc1ccccc1 [Tyrphostin AG 698]	–	131
COc1cc(C2Oc3cc([C@H]4Oc5cc(O)cc(O)c5C(=O)[C@@H]4O)ccc3OC2CO)ccc1O (stereo partly specified)	–	77.9

# Remaining list, next part:

Structure (SMILES),HMGB1-induced TNF-alpha production [1] [%],HMGB1-induced TNF-alpha production (compound concentration: 3 uM) [%]
CN(C)CCn1nnnc1SCC1=C(C(=O)O)N2C(=O)[C@@H](NC(=O)Cc3csc(N)n3)[C@H]2SC1 [Cefotiam hydrochloride],–,88.6
N[C@@H](CCCC(=O)O)C(=O)O [L-2-aminoadipic acid],–,83.5
CC1(C)C[C@@H]1C(=O)N/C(=C\CCCCSC[C@H](N)C(=O)O)C(=O)O [Cilastatin],–,93
CC1(C)C[C@@H]1C(=O)N/C(=C\CCCCSC[C@H](N)C(=O)O)C(=O)O,–,93.3
Cc1cc(Cn2cnc3c2C[C@@H](C(=O)O)N(C(=O)C(c2ccccc2)c2ccccc2)C3)ccc1N,–,77.5
CCCCCCC(=O)OC1CC(C)(C)NC(C)(C)C1 [TMPH hydrochloride],–,112
CCCCCC(=O)O[C@]1(C(C)=O)CC[C@H]2[C@@H]3CCC4=CC(=O)CC[C@]4(C)[C@H]3CC[C@@]21C,–,83.5
Oc1cc2c(cc1O)CN(C(=S)NCCc1ccc(Cl)cc1)CCC2 [Capsazepine],–,81.5
Cc1c(C)c2c(c(C)c1OC(=O)CCC(=O)O)CC[C@@](C)(CCC[C@H](C)CCC[C@H](C)CCCC(C)C)O2 [(+)-alpha-Tocopherol acid succinate],67.4,–
C[C@@H]1C[C@H]2[C@@H]3C[C@H](F)C4=CC(=O)C=C[C@]4(C)[C@@]3(Cl)[C@@H](O)C[C@]2(C)[C@H]1C(=O)COC(=O)C(C)(C)C [Clocortolone pivalate],–,50.8
Nc1nc(Cl)nc2c1ncn2[C@@H]1O[C@H](COP(=O)(O)OP(=O)(O)OP(=O)(O)O)[C@H](O)C1O (stereo partly specified) [2-Chloroadenosine triphosphate tetrasodium],–,76
NC[C@@H](O)c1ccc(O)c(O)c1 [L(-)-Norepinephrine bitartrate],–,56.1
OC(c1cc(C(F)(F)F)nc2c(C(F)(F)F)cccc12)C1CCCCN1 (stereo unspecified),–,93
OC(c1cc(C(F)(F)F)nc2c(C(F)(F)F)cccc12)C1CCCCN1 (stereo unspecified) [Mefloquine hydrochloride],–,48.2
CNCCCC12CCC(c3ccccc31)c1ccccc12 [Maprotiline hydrochloride],–,76 ± 44
CNCCCC12CCC(c3ccccc31)c1ccccc12,–,89.9
CNCCCC12CCC(c3ccccc31)c1ccccc12 [Maprotiline],–,93.5
CNCCCC12CCC(c3ccccc31)c1ccccc12 [Maprotilline HCl],–,105
CC[C@H]1OC(=O)C[C@@H](O)[C@H](C)[C@@H](O[C@@H]2O[C@H](C)[C@@H](O)[C@H](N(C)C)[C@H]2O)[C@@H](CCN2C[C@H](C)C[C@H](C)C2)C[C@@H](C)C(=O)/C=C/C(C)=C/[C@@H]1CO[C@@H]1O[C@H](C)[C@@H](O)[C@@H](OC)[C@H]1OC,–,91.1
O=C1Cc2c([nH]c3ccc(Br)cc23)-c2ccccc2N1 [Kenpaullone],–,134
CO/N=C(\C(=O)N[C@@H]1C(=O)N2C(C(=O)[O-])=C(C[N+]3(C)CCCC3)CS[C@H]12)c1csc(N)n1 [Cefepime],–,116
Cc1coc2c1C(=O)C(=O)c1c-2ccc2c1CCCC2(C)C [Tanshinone IIA],–,75.7
Cc1coc2c1C(=O)C(=O)c1c-2ccc2c1CCCC2(C)C,–,88.9

# — the supplement of paper PMC3682954
